Data: PMC6711745
These are yes or no findings as the source states them, for the method shown. In cells and extracts the contact can be indirect. Some entries that bind do so weakly or less than the wild type.

Biological target: T1, NKX2-1 (mouse (endogenous in MLE-12)) (UniProt P50220)
T1 sequence: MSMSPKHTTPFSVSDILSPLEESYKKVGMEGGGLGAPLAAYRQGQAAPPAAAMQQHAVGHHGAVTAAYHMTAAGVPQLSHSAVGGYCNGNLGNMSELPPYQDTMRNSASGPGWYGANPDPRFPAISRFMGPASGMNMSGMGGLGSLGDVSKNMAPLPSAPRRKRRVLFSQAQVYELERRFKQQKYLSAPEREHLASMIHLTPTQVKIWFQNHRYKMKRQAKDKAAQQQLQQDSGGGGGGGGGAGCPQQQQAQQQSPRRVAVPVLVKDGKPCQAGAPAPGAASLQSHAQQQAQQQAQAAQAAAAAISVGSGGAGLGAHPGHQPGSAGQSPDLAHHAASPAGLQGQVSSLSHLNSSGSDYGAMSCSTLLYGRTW
Assay: co-IP; endogenous proteins in cleared MLE-12 lysate (20 mM Tris HCl pH 8, 137 mM NaCl, 0.1% Nonidet-P40); 10 ug antibody (anti-PGC1α 1F3.9 or anti-NKX2-1 AB76013) or control IgG on Protein G Dynabeads, 30 min at four degrees; eluates immunoblotted; n = 3

B1: PGC1α (protein, UniProt O70343 1-797)
chain: MAWDMCSQDSVWSDIECAALVGEDQPLCPDLPELDLSELDVNDLDTDSFLGGLKWCSDQSEIISNQYNNEPANIFEKIDEENEANLLAVLTETLDSLPVDEDGLPSFDALTDGAVTTDNEASPSSMPDGTPPPQEAEEPSLLKKLLLAPANTQLSYNECSGLSTQNHAANHTHRIRTNPAIVKTENSWSNKAKSICQQQKPQRRPCSELLKYLTTNDDPPHTKPTENRNSSRDKCASKKKSHTQPQSQHAQAKPTTLSLPLTPESPNDPKGSPFENKTIERTLSVELSGTAGLTPPTTPPHKANQDNPFKASPKLKPSCKTVVPPPTKRARYSECSGTQGSHSTKKGPEQSELYAQLSKSSGLSRGHEERKTKRPSLRLFGDHDYCQSLNSKTDILINISQELQDSRQLDFKDASCDWQGHICSSTDSGQCYLRETLEASKQVSPCSTRKQLQDQEIRAELNKHFGHPCQAVFDDKSDKTSELRDGDFSNEQFSKLPVFINSGLAMDGLFDDSEDESDKLSYPWDGTQPYSLFDVSPSCSSFNSPCRDSVSPPKSLFSQRPQRMRSRSRSFSRHRSCSRSPYSRSRSRSPGSRSSSRSCYYYESSHYRHRTHRNSPLYVRSRSRSPYSRRPRYDSYEAYEHERLKRDEYRKEHEKRESERAKQRERQKQKAIEERRVIYVGKIRPDTTRTELRDRFEVFGEIEECTVNLRDDGDSYGFITYRYTCDAFAALENGYTLRRSNETDFELYFCGRKQFFKSNYADLDTNSDDFDPASTKSKYDSLDFDSLLKEAQRSLRR
**Q.** With B1 as the binder, how does the binding read?
**A.** binds
